This series is described as follows: general procedure: Fmoc solid-phase peptide synthesis; Fmoc-Rink amide AM resin; HOBt ester (HOAt and DIPEA for Fmoc-Glu(2-phenylisopropyloxy)-OH). The following applies: whole synthesis, UV214 nm, scale 0.25 mmol.

Regarding “{2-[2-(16-(tetrazol-5-yl)hexadecanoylamino)ethoxy]ethoxy}acetyl-Gly-Ser-Gln-His-Dap(iPr)-D-Leu-c[Glu-Hyp-D-Phe-Arg-Trp-Lys]-NH2”, the “final HPLC purity” value is 99% purity by UV214 nm.

The record behind these values is US20100016237 (published 2010).
